Binding data for two molecules are collected here from patent publication US20210054365A1.

Chains of the proteins cited; added tags and fusions are not shown. Residues count along the entry.
UniProt P10415, residues 1-207: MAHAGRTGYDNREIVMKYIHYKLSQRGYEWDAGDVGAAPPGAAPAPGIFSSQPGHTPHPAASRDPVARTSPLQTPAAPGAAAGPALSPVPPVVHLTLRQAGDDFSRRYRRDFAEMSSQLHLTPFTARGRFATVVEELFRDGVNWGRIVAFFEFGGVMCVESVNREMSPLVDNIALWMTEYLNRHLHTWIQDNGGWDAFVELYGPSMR
UniProt Q16548, residues 1-153: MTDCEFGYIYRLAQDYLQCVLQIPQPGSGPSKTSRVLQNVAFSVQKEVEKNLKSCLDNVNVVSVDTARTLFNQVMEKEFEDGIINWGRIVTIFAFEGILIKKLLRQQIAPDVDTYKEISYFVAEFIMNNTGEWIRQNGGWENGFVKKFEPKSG

These are yes or no findings as the source states them, for the method shown. Some results given as binding are weak or reduced against the parent protein; the word gives no strength.

For assay [1], the target named is Bcl2 (UniProt P10415). The assay can be described thus: one-pot batched yeast mating, barcode sequencing.
Assay [2] has as its target Bfl1 (UniProt Q16548). As to the kind of experiment: one-pot batched yeast mating, barcode sequencing.

B1: Bad.BH3 (peptide, UniProt Q92934 103-127, looked up)
peptide: NLWAAQRYGRELRRMSDEFVDSFKK
As for B1, the binding result in assay [1] was “binds”.

B2: Noxa.BH3 (peptide, UniProt Q13794 18-43, looked up)
peptide: PAELEVECATQLRRFGDKLNFRQKLL
For the molecule B2, the binding result in assay [2] is given as “binds”.
